{"source": "PubChem BioAssay AID493246 (Drosophila RNAi Screening Center, 2011)", "aim": "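Identify essential fly genes by loss of cell viability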 (primary screen)", "system": "Drosophila Kc and S2R+ cells", "knock-down reagent": "long dsRNA against Drosophila genes", "detection": "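Cell number per well after knock-down, printed as raw plate values; calls were based on per-plate z-scores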", "scale": "Kc cell number and S2R+ cell number: higher = more cells remaining", "rule for the call": "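Counted as a hit if cell number falls by a z-score of at least 3 within its plate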", "note": "The deposit covers about 21,000 reagents; below is an unselected part of those with a known target gene and a result. In the full data, 429 (2%) got an active call. 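Values are raw and not normalised between plates; calls rest on per-plate z-scores that were not deposited.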 Reagents against one gene are numbered here. Names joined by + are all predicted targets of the reagent. The record does not give: the amount of reagent, the time to read-out."}
{"predicted target":"sca","dsRNA no.":1,"Kc cell number, rep 1":1.63e6,"Kc cell number, rep 2":1.64e6,"S2R+ cell number, rep 1":1.12e6,"S2R+ cell number, rep 2":1.30e6,"outcome":"inactive"}
{"predicted target":"CG5568","dsRNA no.":1,"Kc cell number, rep 1":1.40e6,"Kc cell number, rep 2":1.44e6,"S2R+ cell number, rep 1":1.07e6,"S2R+ cell number, rep 2":1.13e6,"outcome":"inactive"}
{"predicted target":"CG17687","dsRNA no.":1,"Kc cell number, rep 1":1.21e6,"Kc cell number, rep 2":1.26e6,"S2R+ cell number, rep 1":1.20e6,"S2R+ cell number, rep 2":1.31e6,"outcome":"inactive"}
{"predicted target":"RpL30","dsRNA no.":1,"Kc cell number, rep 1":1.11e6,"Kc cell number, rep 2":1.22e6,"S2R+ cell number, rep 1":7.02e5,"S2R+ cell number, rep 2":2.28e5,"outcome":"inactive"}
{"predicted target":"CG14893","dsRNA no.":1,"Kc cell number, rep 1":1.61e6,"Kc cell number, rep 2":1.59e6,"S2R+ cell number, rep 1":1.29e6,"S2R+ cell number, rep 2":1.49e6,"outcome":"inactive"}
{"predicted target":"GstE10","dsRNA no.":1,"Kc cell number, rep 1":1.57e6,"Kc cell number, rep 2":1.65e6,"S2R+ cell number, rep 1":1.29e6,"S2R+ cell number, rep 2":1.39e6,"outcome":"inactive"}
{"predicted target":"CG5612","dsRNA no.":1,"Kc cell number, rep 1":1.51e6,"Kc cell number, rep 2":1.62e6,"S2R+ cell number, rep 1":9.86e5,"S2R+ cell number, rep 2":1.14e6,"outcome":"inactive"}
{"predicted target":"Paip1","dsRNA no.":1,"Kc cell number, rep 1":1.19e6,"Kc cell number, rep 2":1.22e6,"S2R+ cell number, rep 1":1.02e6,"S2R+ cell number, rep 2":1.08e6,"outcome":"inactive"}
{"predicted target":"CG15296","dsRNA no.":1,"Kc cell number, rep 1":1.51e6,"Kc cell number, rep 2":1.51e6,"S2R+ cell number, rep 1":1.02e6,"S2R+ cell number, rep 2":1.18e6,"outcome":"inactive"}
{"predicted target":"milt","dsRNA no.":1,"Kc cell number, rep 1":1.52e6,"Kc cell number, rep 2":1.69e6,"S2R+ cell number, rep 1":1.18e6,"S2R+ cell number, rep 2":1.33e6,"outcome":"inactive"}
{"predicted target":"milt","dsRNA no.":2,"Kc cell number, rep 1":1.61e6,"Kc cell number, rep 2":1.74e6,"S2R+ cell number, rep 1":1.19e6,"S2R+ cell number, rep 2":1.42e6,"outcome":"inactive"}
{"predicted target":"milt","dsRNA no.":3,"Kc cell number, rep 1":1.33e6,"Kc cell number, rep 2":1.41e6,"S2R+ cell number, rep 1":5.48e5,"S2R+ cell number, rep 2":7.30e5,"outcome":"inactive"}
{"predicted target":"CG17198 + CG17197","dsRNA no.":1,"Kc cell number, rep 1":1.68e6,"Kc cell number, rep 2":1.86e6,"S2R+ cell number, rep 1":9.81e5,"S2R+ cell number, rep 2":1.18e6,"outcome":"inactive"}
{"predicted target":"CG17198 + CG17197","dsRNA no.":2,"Kc cell number, rep 1":1.68e6,"Kc cell number, rep 2":1.59e6,"S2R+ cell number, rep 1":1.01e6,"S2R+ cell number, rep 2":1.05e6,"outcome":"inactive"}
{"predicted target":"nolo","dsRNA no.":1,"Kc cell number, rep 1":1.42e6,"Kc cell number, rep 2":1.52e6,"S2R+ cell number, rep 1":1.07e6,"S2R+ cell number, rep 2":1.05e6,"outcome":"inactive"}
{"predicted target":"nolo","dsRNA no.":2,"Kc cell number, rep 1":1.50e6,"Kc cell number, rep 2":1.62e6,"S2R+ cell number, rep 1":1.36e6,"S2R+ cell number, rep 2":2.87e5,"outcome":"inactive"}
{"predicted target":"nolo","dsRNA no.":3,"Kc cell number, rep 1":1.45e6,"Kc cell number, rep 2":1.57e6,"S2R+ cell number, rep 1":1.36e6,"S2R+ cell number, rep 2":3.16e5,"outcome":"inactive"}
{"predicted target":"Cdk12","dsRNA no.":1,"Kc cell number, rep 1":1.36e6,"Kc cell number, rep 2":1.51e6,"S2R+ cell number, rep 1":1.16e6,"S2R+ cell number, rep 2":1.13e6,"outcome":"inactive"}
{"predicted target":"Prdm13","dsRNA no.":1,"Kc cell number, rep 1":1.46e6,"Kc cell number, rep 2":1.39e6,"S2R+ cell number, rep 1":1.06e6,"S2R+ cell number, rep 2":1.16e6,"outcome":"inactive"}
{"predicted target":"CG9021","dsRNA no.":1,"Kc cell number, rep 1":1.28e6,"Kc cell number, rep 2":1.29e6,"S2R+ cell number, rep 1":6.49e5,"S2R+ cell number, rep 2":7.07e5,"outcome":"inactive"}
{"predicted target":"Tektin-C","dsRNA no.":1,"Kc cell number, rep 1":1.47e6,"Kc cell number, rep 2":1.38e6,"S2R+ cell number, rep 1":7.47e5,"S2R+ cell number, rep 2":8.17e5,"outcome":"inactive"}
{"predicted target":"agt","dsRNA no.":1,"Kc cell number, rep 1":1.36e6,"Kc cell number, rep 2":1.48e6,"S2R+ cell number, rep 1":1.27e6,"S2R+ cell number, rep 2":1.36e6,"outcome":"inactive"}
{"predicted target":"CG18301","dsRNA no.":1,"Kc cell number, rep 1":1.61e6,"Kc cell number, rep 2":1.69e6,"S2R+ cell number, rep 1":1.32e6,"S2R+ cell number, rep 2":1.54e6,"outcome":"inactive"}
{"predicted target":"CG14316","dsRNA no.":1,"Kc cell number, rep 1":1.34e6,"Kc cell number, rep 2":1.35e6,"S2R+ cell number, rep 1":1.07e6,"S2R+ cell number, rep 2":1.21e6,"outcome":"inactive"}
{"predicted target":"Porin2","dsRNA no.":1,"Kc cell number, rep 1":1.67e6,"Kc cell number, rep 2":1.84e6,"S2R+ cell number, rep 1":1.37e6,"S2R+ cell number, rep 2":1.48e6,"outcome":"inactive"}
{"predicted target":"repo","dsRNA no.":1,"Kc cell number, rep 1":1.42e6,"Kc cell number, rep 2":1.36e6,"S2R+ cell number, rep 1":9.48e5,"S2R+ cell number, rep 2":1.07e6,"outcome":"inactive"}
{"predicted target":"Spc105R","dsRNA no.":1,"Kc cell number, rep 1":1.30e6,"Kc cell number, rep 2":1.34e6,"S2R+ cell number, rep 1":7.53e5,"S2R+ cell number, rep 2":8.50e5,"outcome":"active"}

Called active, of those listed so far:
{"predicted target":"Spc105R","dsRNA no.":1,"Kc cell number, rep 1":1.30e6,"Kc cell number, rep 2":1.34e6,"S2R+ cell number, rep 1":7.53e5,"S2R+ cell number, rep 2":8.50e5,"outcome":"active"}
